Results on eight substances are retold here after article PMC5036024.

These are yes or no findings as the source states them, for the method shown. Some results given as binding are weak or reduced against the parent protein; the word gives no strength. For part of these data: Where a sequence is shown, tags or fusion partners need not be part of it.

For one test, the target named is Ska1, subunit of the wt Ska complex (human) (UniProt Q96BD8). Briefly: cross-linking; 6 μM Ska complex cross-linked to 10 μM microtubules with the zero-length cross-linker EDC and Sulfo-NHS; higher molecular weight gel band digested, mass spectrometry (CLMS); both purified.
Consider “Ska3 (V58I), subunit of the wt Ska complex (from UniProt Q8IX90 1-412)”, for which the binding result is listed as “binds”.

The target in the next test is T1, Ska2 (His-GST tagged, bait of the co-purification) (human) (UniProt Q8WVK7).
T1 sequence: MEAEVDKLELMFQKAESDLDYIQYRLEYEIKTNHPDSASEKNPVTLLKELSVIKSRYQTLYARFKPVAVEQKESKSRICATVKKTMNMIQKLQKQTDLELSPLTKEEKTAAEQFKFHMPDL
Nature of the test: co-purification (glutathione affinity by the GST of Ska2, then SEC); three plasmids co-transformed in E. coli BL21 Gold; glutathione sepharose in batch, washes with 500 mM NaCl and 1 M NaCl; eluted with glutathione, tags cleaved with TEV; Superose 6 in 20 mM Tris-HCl pH 8, 100 mM NaCl, 5 mM DTT.
As to “Ska1, subunit of the wt Ska complex (from UniProt Q96BD8 1-255)”, the binding entry is recorded as “binds”.

Consider “Ska3 1-101 (from UniProt Q8IX90 1-101) (domain or fragment)”, for which the binding entry is “binds”. Take “Ska3 1-151 (from UniProt Q8IX90 1-151) (domain or fragment)”: the binding result is given as “binds”.

Consider “Ska3 1-195 (from UniProt Q8IX90 1-195) (domain or fragment)”, for which the binding result is listed as “binds”. On the same count and under the same terms, as for “Ska3 (V58I), subunit of the wt Ska complex (from UniProt Q8IX90 1-412)”, the entry is “binds”; as for “Ska3 D321/E323/D326K (recombinant subunit) (from UniProt Q8IX90 1-412)”, “binds”. Consider “Ska3 K199/202A (recombinant subunit) (from UniProt Q8IX90 1-412)”, for which the binding entry was “binds”. Same read-out and setting: for “Ska3 S394/K399A (recombinant subunit) (from UniProt Q8IX90 1-412)” the value was “binds”.
